# Measurements as given in the supplement of paper PMC8728848.
# This is one part of the list.
# B1: CBP21 (Serratia marcescens), O83009 (protein)
# chain: MNKTSRTLLSLGLLSAAMFGVSQQANAHGYVESPASRAYQCKLQLNTQCGSVQYEPQSVEGLKGFPQAGPADGHIASADKSTFFELDQQTPTRWNKLNLKTGPNSFTWKLTARHSTTSWRYFITKPNWDASQPLTRASFDLTPFCQFNDGGAIPAAQVTHQCNIPADRSGSHVILAVWDIADTANAFYQAIDVNLSK
# How the values were obtained:
# Assay in all cases: glycan array binding signal (z-score within array); higher = stronger binding
# Settings in all cases: glycan notation: IUPAC condensed, linker removed
# [1] = molecular target: Gal(b1-4)GalNAc(b1-3)[Fuc(a1-2)]Gal(b1-4)GlcNAc
# In short: (§1)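 Glycan array data were curated from 3228 arrays in the Consortium for Functional Glycomics database and kept only where the protein sequence was available. Glycan names were converted to IUPAC-condensed notation, and columns mapping to the same glycan were averaged. The binding signal is a within-array Z-score, averaged across arrays of the same protein sequence at different concentrations or buffers and across linkers. Negative Z-scores can be read as non-binding.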
# Gal(b1-4)Glc = molecular target: Gal(b1-4)Glc
# In short: as §1
# Gal(b1-4)Glc6S = molecular target: Gal(b1-4)Glc6S
# In short: as §1
# Gal(b1-4)GlcNAc = molecular target: Gal(b1-4)GlcNAc
# In short: as §1
# [2] = molecular target: Gal(b1-4)GlcNAc(a1-6)Gal(b1-4)GlcNAc
# In short: as §1
# Gal(b1-4)GlcNAc(b1-2)Man = molecular target: Gal(b1-4)GlcNAc(b1-2)Man
# In short: as §1
# [3] = molecular target: Gal(b1-4)GlcNAc(b1-2)Man(a1-3)Man(b1-4)GlcNAc(b1-4)GlcNAc
# In short: as §1
# [4] = molecular target: Gal(b1-4)GlcNAc(b1-2)Man(a1-3)[Gal(b1-4)GlcNAc(b1-2)Man(a1-6)]Man(b1-4)GlcNAc(b1-4)GlcNAc
# In short: as §1
# [5] = molecular target: Gal(b1-4)GlcNAc(b1-2)Man(a1-3)[Gal(b1-4)GlcNAc(b1-2)Man(a1-6)]Man(b1-4)GlcNAc(b1-4)[Fuc(a1-6)]GlcNAc
# In short: as §1
# [6] = molecular target: Gal(b1-4)GlcNAc(b1-2)Man(a1-3)[Gal(b1-4)GlcNAc(b1-2)Man(a1-6)][Gal(b1-4)GlcNAc(b1-4)]Man(b1-4)GlcNAc(b1-4)[Fuc(a1-6)]GlcNAc
# In short: as §1
# [7] = molecular target: Gal(b1-4)GlcNAc(b1-2)Man(a1-3)[Gal(b1-4)GlcNAc(b1-2)Man(a1-6)][GlcNAc(b1-4)]Man(b1-4)GlcNAc(b1-4)[Fuc(a1-6)]GlcNAc
# In short: as §1
# [8] = molecular target: Gal(b1-4)GlcNAc(b1-2)Man(a1-3)[GlcNAc(b1-2)Man(a1-6)]Man(b1-4)GlcNAc(b1-4)GlcNAc
# In short: as §1
# [9] = molecular target: Gal(b1-4)GlcNAc(b1-2)Man(a1-3)[GlcNAc(b1-4)][Gal(b1-4)GlcNAc(b1-2)Man(a1-6)]Man(b1-4)GlcNAc(b1-4)GlcNAc
# In short: as §1
# [10] = molecular target: Gal(b1-4)GlcNAc(b1-2)Man(a1-3)[Man(a1-6)]Man(b1-4)GlcNAc(b1-4)GlcNAc
# In short: as §1
# [11] = molecular target: Gal(b1-4)GlcNAc(b1-2)Man(a1-6)Man(b1-4)GlcNAc(b1-4)GlcNAc
# In short: as §1
# [12] = molecular target: Gal(b1-4)GlcNAc(b1-2)Man(a1-6)[GlcNAc(b1-2)Man(a1-3)]Man(b1-4)GlcNAc(b1-4)GlcNAc
# In short: as §1
# [13] = molecular target: Gal(b1-4)GlcNAc(b1-2)Man(a1-6)[Man(a1-3)]Man(b1-4)GlcNAc(b1-4)GlcNAc
# In short: as §1
# [14] = molecular target: Gal(b1-4)GlcNAc(b1-2)[Gal(b1-4)GlcNAc(b1-4)]Man(a1-3)[Gal(b1-4)GlcNAc(b1-2)Man(a1-6)]Man(b1-4)GlcNAc(b1-4)GlcNAc
# In short: as §1
# [15] = molecular target: Gal(b1-4)GlcNAc(b1-2)[Gal(b1-4)GlcNAc(b1-4)]Man(a1-3)[Gal(b1-4)GlcNAc(b1-2)[Gal(b1-4)GlcNAc(b1-6)]Man(a1-6)]Man(b1-4)GlcNAc(b1-4)GlcNAc
# In short: as §1
# [16] = molecular target: Gal(b1-4)GlcNAc(b1-2)[Gal(b1-4)GlcNAc(b1-4)]Man(a1-3)[GlcNAc(b1-4)][Gal(b1-4)GlcNAc(b1-2)Man(a1-6)]Man(b1-4)GlcNAc(b1-4)GlcNAc
# In short: as §1
# [17] = molecular target: Gal(b1-4)GlcNAc(b1-2)[Gal(b1-4)GlcNAc(b1-4)]Man(a1-3)[GlcNAc(b1-4)][Gal(b1-4)GlcNAc(b1-2)[Gal(b1-4)GlcNAc(b1-6)]Man(a1-6)]Man(b1-4)GlcNAc(b1-4)GlcNAc
# In short: as §1
# [18] = molecular target: Gal(b1-4)GlcNAc(b1-2)[Gal(b1-4)GlcNAc(b1-6)]Man(a1-6)[Gal(b1-4)GlcNAc(b1-2)Man(a1-3)]Man(b1-4)GlcNAc(b1-4)GlcNAc
# In short: as §1
binder,measurement,setting,value
B1,glycan array binding signal (z-score),[1],0.907
same,glycan array binding signal (z-score),Gal(b1-4)Glc,-0.469
same,glycan array binding signal (z-score),Gal(b1-4)Glc6S,0.359
same,glycan array binding signal (z-score),Gal(b1-4)GlcNAc,-0.181
same,glycan array binding signal (z-score),[2],0.397
same,glycan array binding signal (z-score),Gal(b1-4)GlcNAc(b1-2)Man,0.169
same,glycan array binding signal (z-score),[3],0.348
same,glycan array binding signal (z-score),[4],0.478
same,glycan array binding signal (z-score),[5],1.2
same,glycan array binding signal (z-score),[6],0.898
same,glycan array binding signal (z-score),[7],-0.508
same,glycan array binding signal (z-score),[8],-1.25
same,glycan array binding signal (z-score),[9],-0.579
same,glycan array binding signal (z-score),[10],-1.46
same,glycan array binding signal (z-score),[11],0.178
same,glycan array binding signal (z-score),[12],0.193
same,glycan array binding signal (z-score),[13],-0.287
same,glycan array binding signal (z-score),[14],-0.09
same,glycan array binding signal (z-score),[15],-0.409
same,glycan array binding signal (z-score),[16],-1.29
same,glycan array binding signal (z-score),[17],-1.35
same,glycan array binding signal (z-score),[18],-0.943

# Reformatted: entries from further up
binder	measurement	setting	value
B1	glycan array binding signal (z-score)	Gal(b1-4)GlcNAc(b1-2)Man	0.169
same	glycan array binding signal (z-score)	[3]	0.348
